Results are given in words; binding and its absence hold for the method and conditions named.
Biological target: MEKK1 TOG domain, MEKK1(542–888) (human) (UniProt Q13233)
Assay: SEC-MALS

B1: MEKK1 TOG domain, MEKK1(542–888) (domain or fragment, UniProt Q13233 542-888)
chain: THYGTQQIPPAYKDLAEPWIQVFGMELVGCLFSRNWNVREMALRRLSHDVSGALLLANGESTGNSGGSSGSSPSGGATSGSSQTSISGDVVEACCSVLSMVCADPVYKVYVAALKTLRAMLVYTPCHSLAERIKLQRLLQPVVDTILVKCADANSRTSQLSISTLLELCKGQAGELAVGREILKAGSIGIGGVDYVLNCILGNQTESNNWQELLGRLCLIDRLLLEFPAEFYPHIVSTDVSQAEPVEIRYKKLLSLLTFALQSIDNSHSMVGKLSRRIYLSSARMVTTVPHVFSKLLEMLSVSSSTHFTRMRRRLMAIADEVEIAEAIQLGVEDTLDGQQDSFLQAS
In the case of B1, the binding is reported as “no binding”.
